One substance from paper PMC11402786 can be followed below.

By UniProt entry, the sequences of proteins in these tests, tags left out.
UniProt Q6PDM2: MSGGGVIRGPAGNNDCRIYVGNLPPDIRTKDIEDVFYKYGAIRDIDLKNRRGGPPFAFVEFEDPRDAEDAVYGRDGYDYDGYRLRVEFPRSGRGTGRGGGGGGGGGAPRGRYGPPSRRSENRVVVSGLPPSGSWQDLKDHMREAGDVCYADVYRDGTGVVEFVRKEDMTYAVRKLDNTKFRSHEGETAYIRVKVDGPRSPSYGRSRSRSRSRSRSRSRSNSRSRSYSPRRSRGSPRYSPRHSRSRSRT
UniProt P60335: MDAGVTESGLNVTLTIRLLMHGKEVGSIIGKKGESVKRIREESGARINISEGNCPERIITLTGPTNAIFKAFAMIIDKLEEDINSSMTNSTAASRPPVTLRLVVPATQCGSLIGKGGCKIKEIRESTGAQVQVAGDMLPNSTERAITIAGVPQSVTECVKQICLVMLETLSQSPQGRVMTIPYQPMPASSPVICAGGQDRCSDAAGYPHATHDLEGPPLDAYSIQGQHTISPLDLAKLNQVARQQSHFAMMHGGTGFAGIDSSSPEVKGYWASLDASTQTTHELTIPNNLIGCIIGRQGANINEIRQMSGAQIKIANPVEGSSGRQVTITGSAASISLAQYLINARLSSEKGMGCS

The target in the assay is SRSF1 (mouse (endogenous in early four-cell embryos)) (UniProt Q6PDM2). The assay is described as follows: co-IP; early four-cell mouse embryos; the text does not tell which protein was precipitated and which was blotted.

These are yes or no findings as the source states them, for the method shown. In cells and extracts the contact can be indirect. Some entries that bind do so weakly or less than the wild type.

Turning to PCBP1 (from UniProt P60335 1-356), the binding entry is reported as “binds”.
